These are yes or no findings as the source states them, for the method shown. Binding seen in cells or lysates may run through a third protein. Some entries that bind do so weakly or less than the wild type.
Molecular target: T1, Sirtuin1 (SIRT1) (rat (endogenous in Sprague-Dawley rat brain cortex))
T1 sequence: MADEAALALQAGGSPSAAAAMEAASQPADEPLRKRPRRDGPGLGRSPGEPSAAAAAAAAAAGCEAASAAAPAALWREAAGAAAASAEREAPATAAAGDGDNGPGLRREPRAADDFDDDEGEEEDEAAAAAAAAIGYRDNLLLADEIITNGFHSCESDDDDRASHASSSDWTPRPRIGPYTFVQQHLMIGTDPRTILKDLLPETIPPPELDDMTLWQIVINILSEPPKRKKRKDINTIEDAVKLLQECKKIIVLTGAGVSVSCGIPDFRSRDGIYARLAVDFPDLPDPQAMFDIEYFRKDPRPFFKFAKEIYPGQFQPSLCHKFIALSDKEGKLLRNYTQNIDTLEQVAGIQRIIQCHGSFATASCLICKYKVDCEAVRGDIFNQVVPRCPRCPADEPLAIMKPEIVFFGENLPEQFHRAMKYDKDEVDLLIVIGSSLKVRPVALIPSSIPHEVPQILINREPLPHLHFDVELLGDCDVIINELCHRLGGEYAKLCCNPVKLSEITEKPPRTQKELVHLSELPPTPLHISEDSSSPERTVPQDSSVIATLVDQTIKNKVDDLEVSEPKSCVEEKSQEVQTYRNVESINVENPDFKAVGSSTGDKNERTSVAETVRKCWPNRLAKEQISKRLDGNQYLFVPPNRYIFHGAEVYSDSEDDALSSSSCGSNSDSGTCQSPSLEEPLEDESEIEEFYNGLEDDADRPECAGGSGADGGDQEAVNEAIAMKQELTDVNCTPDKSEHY
Experiment: co-IP; brain tissue from lesioned cortices 3 days after TBI, incubated with 1 ug antibody for 2 h at 4 °C, then protein A/G agarose beads overnight, washed three times with lysis buffer, western blot; groups: sham, TBI, TBI + ω-3 PUFA

Amino acid sequences for entries named in this document (tags omitted).
UniProt P63159: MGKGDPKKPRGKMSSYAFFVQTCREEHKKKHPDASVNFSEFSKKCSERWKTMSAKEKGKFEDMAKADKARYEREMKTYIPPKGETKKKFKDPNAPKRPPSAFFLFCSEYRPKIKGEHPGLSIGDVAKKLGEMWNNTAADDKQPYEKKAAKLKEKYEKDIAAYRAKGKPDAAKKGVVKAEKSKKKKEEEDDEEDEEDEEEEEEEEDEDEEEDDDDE

## High mobile group box 1 (HMGB1) (from UniProt P63159 1-215)
  binding: binds

From publication PMC5909267
